Experimental data published in the supplement of paper PMC10849652.
Some of the results follow.

By UniProt entry, the sequences of proteins in these tests, tags left out. Where a name states a change or a piece, a line headed by the entry shows the natural chain unless it says otherwise.
UniProt O14787: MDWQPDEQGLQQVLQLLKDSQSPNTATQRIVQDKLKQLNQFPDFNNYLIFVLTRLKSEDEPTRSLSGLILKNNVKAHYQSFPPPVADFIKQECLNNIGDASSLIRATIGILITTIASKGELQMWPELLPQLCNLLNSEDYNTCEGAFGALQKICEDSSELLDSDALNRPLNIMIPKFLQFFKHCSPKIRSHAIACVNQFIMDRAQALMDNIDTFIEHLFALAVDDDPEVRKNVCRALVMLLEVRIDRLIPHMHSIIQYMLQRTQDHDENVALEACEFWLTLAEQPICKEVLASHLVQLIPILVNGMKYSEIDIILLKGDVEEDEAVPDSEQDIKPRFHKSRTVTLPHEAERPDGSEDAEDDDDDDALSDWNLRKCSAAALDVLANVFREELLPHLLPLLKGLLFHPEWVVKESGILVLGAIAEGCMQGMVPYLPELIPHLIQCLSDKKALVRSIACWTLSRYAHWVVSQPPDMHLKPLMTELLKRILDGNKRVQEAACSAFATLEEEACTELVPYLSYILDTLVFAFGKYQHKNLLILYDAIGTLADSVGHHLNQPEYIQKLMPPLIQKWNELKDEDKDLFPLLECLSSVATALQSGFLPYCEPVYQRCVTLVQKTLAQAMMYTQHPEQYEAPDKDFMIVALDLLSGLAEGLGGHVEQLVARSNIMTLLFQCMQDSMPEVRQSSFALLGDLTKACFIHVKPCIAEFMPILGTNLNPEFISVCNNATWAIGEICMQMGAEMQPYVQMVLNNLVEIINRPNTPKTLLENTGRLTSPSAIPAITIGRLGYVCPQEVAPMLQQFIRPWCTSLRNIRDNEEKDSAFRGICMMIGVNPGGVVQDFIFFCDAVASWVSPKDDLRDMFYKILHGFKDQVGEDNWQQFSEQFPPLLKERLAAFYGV
UniProt Q71RG4: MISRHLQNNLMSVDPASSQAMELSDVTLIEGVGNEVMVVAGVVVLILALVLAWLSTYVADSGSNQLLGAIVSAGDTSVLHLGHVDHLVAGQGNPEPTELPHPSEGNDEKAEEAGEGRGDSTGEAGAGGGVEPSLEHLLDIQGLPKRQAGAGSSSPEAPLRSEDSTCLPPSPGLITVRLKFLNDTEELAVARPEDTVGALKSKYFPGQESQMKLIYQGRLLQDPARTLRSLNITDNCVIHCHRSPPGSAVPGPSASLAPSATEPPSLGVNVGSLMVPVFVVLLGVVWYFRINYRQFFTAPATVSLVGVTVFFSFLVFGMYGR
UniProt P13693: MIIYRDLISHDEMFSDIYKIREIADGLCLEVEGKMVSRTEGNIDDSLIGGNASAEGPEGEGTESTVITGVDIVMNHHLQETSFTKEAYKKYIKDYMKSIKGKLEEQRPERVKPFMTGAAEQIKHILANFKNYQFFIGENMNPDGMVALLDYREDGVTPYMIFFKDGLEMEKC

Experiments:
Experiment in all cases: log2 fold change, soluble protein after heating vs DMSO (PISA); higher = thermal stabilisation; K562 lysate, 10 uM; active = over 0.2 and 3.5 SD of the protein, either way, in both replicates (recomputed)
[1] = compound: NCC(=O)Nc1ccc(-n2nc(C(F)(F)F)cc2-c2ccc3c(ccc4ccccc43)c2)cc1
How it was run: (§1)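 Following dounce homogenisation of K562 pellets in PBS pH 7.4 with 1 mM MgCl2, crude extract at 1 mg/mL protein was incubated for 30 min with 10 μM compound. Aliquots were then heated for 3 min over 48°C-58°C and pooled, NP-40 was added to 0.5% at 4°C, and soluble protein was recovered as the supernatant at 21,000xg for 90 min. Channel-sum-equalised TMTpro 16plex LC-MS/MS quantified this protein. Each value, from duplicates, is a log-two fold change in thermal stability relative to solvent controls.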

vorinostat = compound: O=C(CCCCCCC(=O)Nc1ccccc1)NO [vorinostat]
How it was run: as §1

silmitasertib = compound: O=C(O)c1ccc2c(c1)nc(Nc1cccc(Cl)c1)c1ccncc12 [silmitasertib]
How it was run: as §1

[2] = compound: O=C1NC(=O)C(c2cnc3ccccn23)=C1c1cn2c3c(cc(F)cc13)CN(C(=O)N1CCCCC1)CC2
How it was run: as §1

entospletinib = compound: c1cn2cc(-c3ccc4cn[nH]c4c3)nc(Nc3ccc(N4CCOCC4)cc3)c2n1 [entospletinib]
How it was run: as §1

Measured: log2 fold change

TNPO2 (UniProt O14787)
inactive: [1] 0.022 | vorinostat -0.198 | silmitasertib 0.007 | [2] -0.003 | entospletinib 0.004

TMUB2 (UniProt Q71RG4)
inactive: [1] -0.054 | vorinostat 0.066 | silmitasertib 0.04 | [2] 0.067 | entospletinib 0.101

TPT1 (UniProt P13693)
inactive: [1] 0.034 | vorinostat 0.124 | silmitasertib -0.02 | [2] 0.002 | entospletinib -0.011
